Results taken from patent US20050227933.

By UniProt entry, the sequences of proteins in these tests, tags left out. Where a name states a change or a piece, a line headed by the entry shows the natural chain unless it says otherwise.
UniProt P0CAW2: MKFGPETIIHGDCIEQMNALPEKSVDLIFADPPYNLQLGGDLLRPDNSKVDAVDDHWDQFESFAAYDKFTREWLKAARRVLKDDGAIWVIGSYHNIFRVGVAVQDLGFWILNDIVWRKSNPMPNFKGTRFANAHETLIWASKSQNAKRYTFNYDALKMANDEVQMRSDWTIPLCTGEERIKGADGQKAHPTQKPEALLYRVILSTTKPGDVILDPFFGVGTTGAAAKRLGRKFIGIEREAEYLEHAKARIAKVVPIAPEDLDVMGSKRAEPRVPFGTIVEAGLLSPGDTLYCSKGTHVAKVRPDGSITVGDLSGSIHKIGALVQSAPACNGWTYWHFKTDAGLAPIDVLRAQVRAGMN

Target: CcrM adenine DNA methyltransferase (UniProt P0CAW2)
Assay: activity assay
Details: methylation protects from HinfI/HindIII cleavage; no value given; 30 C, SAM, 150 mM K acetate pH 7.5; purified recombinant protein; label: 5'-32P

TCCTCTCGCGAGTCAACAGAAAT / CGCGGATATTTCTGTTGACTCGCGAGAGGA [23/30-mer (unmethylated)]
activity on this sequence: active
